# Laboratory results published in US6642353B1, “Peptide ligands for the erythropoietin receptor” (Chugai Seiyaku Kabushiki Kaisha, priority 2000, dated 2003).
# Results are given in words; binding and its absence hold for the method and conditions named.
# Legend:
# [1] = biological target: extracellular domain of the receptor for interleukin-6 (IL-6R); test: magnetic bead phage ELISA, control
# [2] = biological target: extracellular domain of the receptor for tumor necrosis factor (TNFR); test: magnetic bead phage ELISA, control
binder,measurement,setting,value
"DFDVCRRGWVGHCKDWLSDEYASNPSYPVPHSYYLNPP (peptide, not shown: large carriers) [ERB1 phage clone]",binding,[1],no binding
same,binding,[2],no binding
